Measured values: patent publication US9416347B2, “Method of treating bacterial contamination in a microalgae culture with pH shock” (Heliae Development LLC, priority 2014, dated 2016)

Details: acetic acid/pH treated culture

Structure (SMILES): CC(=O)O [Acetic acid, acetic acid]
- residual acetate higher than the untreated cultures (end of experiment): 5200 mg/L
- residual acetate in the culture (end of experiment (96 h)): 9650 ± 150 mg/L
